Test [1] concerns the target T1, NXF-1::3xFLAG::eGFP (C. elegans) (UniProt Q9XVS7).
T1 sequence: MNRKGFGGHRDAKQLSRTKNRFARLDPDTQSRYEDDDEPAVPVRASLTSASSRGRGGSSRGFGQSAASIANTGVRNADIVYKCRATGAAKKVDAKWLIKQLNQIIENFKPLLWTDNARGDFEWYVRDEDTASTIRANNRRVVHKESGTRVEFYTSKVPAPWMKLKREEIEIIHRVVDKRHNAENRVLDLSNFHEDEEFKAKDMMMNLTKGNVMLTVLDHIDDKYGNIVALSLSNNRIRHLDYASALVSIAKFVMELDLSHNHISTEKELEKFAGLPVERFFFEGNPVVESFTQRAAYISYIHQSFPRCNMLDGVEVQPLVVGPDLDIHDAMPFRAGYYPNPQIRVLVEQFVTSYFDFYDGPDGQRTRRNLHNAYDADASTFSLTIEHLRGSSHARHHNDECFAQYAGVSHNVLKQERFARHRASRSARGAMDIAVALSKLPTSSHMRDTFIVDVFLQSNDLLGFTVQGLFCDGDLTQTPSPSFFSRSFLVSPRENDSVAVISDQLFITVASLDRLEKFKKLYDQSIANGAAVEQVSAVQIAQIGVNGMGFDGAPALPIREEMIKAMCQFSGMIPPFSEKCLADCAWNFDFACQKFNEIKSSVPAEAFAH
Put plainly: affinity purification with mass spectrometry; Anti-FLAG M2 magnetic beads on protein extracts of JCP519 worms expressing NXF-1::3xFLAG::eGFP; N2 WT extracts as negative control; three replicates; competitive elution with 3xFLAG peptide; SDS-PAGE, Coomassie Blue, bands excised, LC-MS/MS.

Amino acid sequences for entries named in this document (tags omitted). Residues count along the entry.
UniProt P05690, residues 16-1613: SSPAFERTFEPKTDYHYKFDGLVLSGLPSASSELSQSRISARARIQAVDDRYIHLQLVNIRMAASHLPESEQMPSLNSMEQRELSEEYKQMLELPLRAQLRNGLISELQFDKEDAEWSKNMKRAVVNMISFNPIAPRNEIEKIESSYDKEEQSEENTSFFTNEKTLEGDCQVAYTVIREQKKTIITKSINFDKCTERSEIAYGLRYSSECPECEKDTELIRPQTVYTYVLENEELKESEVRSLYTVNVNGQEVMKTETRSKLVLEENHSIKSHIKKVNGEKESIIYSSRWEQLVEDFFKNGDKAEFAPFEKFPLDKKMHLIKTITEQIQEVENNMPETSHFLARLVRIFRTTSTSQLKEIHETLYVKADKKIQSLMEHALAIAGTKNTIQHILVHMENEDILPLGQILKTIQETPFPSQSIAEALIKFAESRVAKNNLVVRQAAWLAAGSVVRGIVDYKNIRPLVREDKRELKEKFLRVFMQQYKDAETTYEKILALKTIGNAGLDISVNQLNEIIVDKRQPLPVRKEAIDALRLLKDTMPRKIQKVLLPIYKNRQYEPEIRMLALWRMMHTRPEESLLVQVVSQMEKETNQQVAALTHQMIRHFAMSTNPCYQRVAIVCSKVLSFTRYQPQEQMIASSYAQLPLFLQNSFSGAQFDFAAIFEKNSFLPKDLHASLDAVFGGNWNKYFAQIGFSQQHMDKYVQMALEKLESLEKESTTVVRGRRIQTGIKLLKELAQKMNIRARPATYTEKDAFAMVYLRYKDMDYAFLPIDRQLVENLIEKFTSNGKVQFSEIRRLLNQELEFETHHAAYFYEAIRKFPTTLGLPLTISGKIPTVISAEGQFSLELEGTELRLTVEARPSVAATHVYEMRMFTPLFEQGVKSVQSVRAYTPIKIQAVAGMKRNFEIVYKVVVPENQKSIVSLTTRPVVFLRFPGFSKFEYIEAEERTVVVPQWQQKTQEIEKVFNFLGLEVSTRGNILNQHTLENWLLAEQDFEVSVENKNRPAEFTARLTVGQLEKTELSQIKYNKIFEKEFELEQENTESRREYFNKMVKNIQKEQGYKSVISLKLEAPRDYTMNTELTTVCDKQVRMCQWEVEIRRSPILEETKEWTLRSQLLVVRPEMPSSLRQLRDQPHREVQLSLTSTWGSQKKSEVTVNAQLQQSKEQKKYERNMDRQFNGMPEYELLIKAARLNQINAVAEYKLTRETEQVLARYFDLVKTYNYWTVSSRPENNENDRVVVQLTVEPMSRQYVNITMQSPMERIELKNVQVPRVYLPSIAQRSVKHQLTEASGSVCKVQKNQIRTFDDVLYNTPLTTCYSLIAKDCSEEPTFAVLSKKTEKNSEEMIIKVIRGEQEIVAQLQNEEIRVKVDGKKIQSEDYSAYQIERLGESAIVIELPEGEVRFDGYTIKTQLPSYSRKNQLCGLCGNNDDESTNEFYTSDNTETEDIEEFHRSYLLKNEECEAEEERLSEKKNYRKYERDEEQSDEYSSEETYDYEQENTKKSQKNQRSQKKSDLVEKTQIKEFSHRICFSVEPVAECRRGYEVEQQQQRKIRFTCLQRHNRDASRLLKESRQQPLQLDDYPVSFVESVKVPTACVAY
UniProt P18947, residues 16-1603: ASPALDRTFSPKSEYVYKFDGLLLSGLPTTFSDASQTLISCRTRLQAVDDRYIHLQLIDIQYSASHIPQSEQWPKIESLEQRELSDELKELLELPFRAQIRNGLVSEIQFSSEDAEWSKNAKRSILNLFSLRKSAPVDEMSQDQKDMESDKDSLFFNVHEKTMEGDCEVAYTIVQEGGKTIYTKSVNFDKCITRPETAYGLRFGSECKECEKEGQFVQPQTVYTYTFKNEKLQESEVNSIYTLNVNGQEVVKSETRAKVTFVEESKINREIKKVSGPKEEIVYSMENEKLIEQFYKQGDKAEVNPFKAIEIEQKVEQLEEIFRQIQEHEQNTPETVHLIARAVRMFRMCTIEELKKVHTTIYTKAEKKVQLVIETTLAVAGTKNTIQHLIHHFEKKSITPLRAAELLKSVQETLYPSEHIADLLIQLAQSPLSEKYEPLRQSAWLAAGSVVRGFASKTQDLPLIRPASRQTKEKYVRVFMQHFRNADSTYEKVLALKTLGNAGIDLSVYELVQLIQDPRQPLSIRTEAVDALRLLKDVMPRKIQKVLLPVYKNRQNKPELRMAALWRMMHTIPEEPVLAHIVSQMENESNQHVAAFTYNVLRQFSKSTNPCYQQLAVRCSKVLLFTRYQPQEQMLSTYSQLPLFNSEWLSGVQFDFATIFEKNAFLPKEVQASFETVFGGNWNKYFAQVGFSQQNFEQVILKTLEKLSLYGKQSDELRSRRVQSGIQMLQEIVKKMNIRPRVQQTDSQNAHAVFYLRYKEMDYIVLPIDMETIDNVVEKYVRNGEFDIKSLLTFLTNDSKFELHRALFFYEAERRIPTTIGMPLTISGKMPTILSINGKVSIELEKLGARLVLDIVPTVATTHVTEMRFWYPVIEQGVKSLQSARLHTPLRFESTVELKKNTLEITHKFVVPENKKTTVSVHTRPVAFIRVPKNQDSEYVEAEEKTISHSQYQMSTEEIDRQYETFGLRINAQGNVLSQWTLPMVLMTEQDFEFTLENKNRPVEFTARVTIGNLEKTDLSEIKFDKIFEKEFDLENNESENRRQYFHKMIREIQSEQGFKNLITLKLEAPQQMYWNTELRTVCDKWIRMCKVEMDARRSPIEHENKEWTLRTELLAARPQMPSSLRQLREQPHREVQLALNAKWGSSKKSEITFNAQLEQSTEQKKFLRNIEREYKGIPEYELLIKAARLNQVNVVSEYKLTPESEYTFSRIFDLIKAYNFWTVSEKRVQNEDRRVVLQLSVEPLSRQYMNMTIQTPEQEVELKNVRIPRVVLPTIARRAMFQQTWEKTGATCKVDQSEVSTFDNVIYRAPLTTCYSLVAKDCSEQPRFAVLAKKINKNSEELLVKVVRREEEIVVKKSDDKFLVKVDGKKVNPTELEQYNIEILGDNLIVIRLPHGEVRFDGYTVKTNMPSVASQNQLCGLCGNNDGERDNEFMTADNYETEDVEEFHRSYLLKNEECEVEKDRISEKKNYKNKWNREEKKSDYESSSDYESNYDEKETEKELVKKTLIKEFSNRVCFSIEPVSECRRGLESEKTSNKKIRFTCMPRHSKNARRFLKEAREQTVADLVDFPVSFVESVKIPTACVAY

The target in test [2] is T1, NXF-1::3xFLAG::eGFP (C. elegans). Described as above. This is another data set of the same source.

Like-named read-outs stand apart in the source and are kept apart here. These are yes or no findings as the source states them, for the method shown. Binding seen in cells or lysates may run through a third protein. A yes stands for co-enrichment or nearness to the bait. Other partners may have been found. Tags and fused reporters may be left off the sequences shown.

Regarding “ABTS-3 (C. elegans (endogenous in worm extract))”, the binding result in test [1] is recorded as “binds”.
On the same count and under the same terms, under VIT-2 (from UniProt P05690 16-1613) stands “binds”; under “NPP-9 (C. elegans (endogenous in worm extract))”, “binds”.
Regarding HCP-1 (from UniProt O76447), the binding result in test [1] was “binds”.
On the same count and under the same terms, under “HRP-2 (C. elegans (endogenous in worm extract))” stands “binds”; under ANC-1 (from UniProt Q9N4M4 1-8545), “binds”.
The same measure, in the same setting: as for VIT-4 (from UniProt P18947 16-1603), the entry is “binds”; as for IMB-3 (from UniProt Q9N5V3), “binds”; as for “CTL-3 (C. elegans (endogenous in worm extract))”, “binds”.
In the case of RAN-1 (from UniProt O17915 1-215), in test [1], the binding result is “binds”.
In the case of CSQ-1 (from UniProt Q20203), in test [1], the binding entry is “binds”.
Same read-out and setting: under VIG-1 (from UniProt H2KYR1) stands “binds”.

B1: FIB-1 (protein, UniProt Q22053 1-352)
chain: MGRPEFNRGGGGGGFRGGRGGDRGGSRGGFGGGGRGGYGGGDRGSFGGGDRGGFRGGRGGGDRGGFRGGRGGGDRGGFGGRGSPRGGFGGRGSPRGGRGSPRGGRGGAGGMRGGKTVVVEPHRLGGVFIVKGKEDALATKNMVVGESVYGEKRVSVDDGAGSIEYRVWNPFRSKLAASIMGGLENTHIKPGTKLLYLGAASGTTVSHCSDVVGPEGIVYAVEFSHRSGRDLLGVAKKRPNVVPIVEDARHPHKYRMLVGMVDVIFSDVAQPDQARIVALNAQNFLRNGGHAVISIKANCIDSTAEPEAVFAGEVNKLKEEKFKPLEQVTLEPYERDHAVVVAVYRPVKGKKV
Turning to B1, the binding entry in test [2] is “binds”.

B2: RAN-2 (protein, UniProt P34342 1-960)
chain: MLPRLFLTILPVCSPSISNKTSKKFRDAHANHVFLFEMDLNNTLSFFGKQLKLDTEEEISKVIDQIRKHLNLEVLDFRGNTLSVLAGKLIAESLKTRRELKECIWSDMFTGRLKDEIPLVLDALGEALTASGCRLTTLDLSDNAFGAGLSTSLYNFLQSPALYSLENLILNNNGLGLAGKTVGKALCSLIDASKKAGTPLKLKKFVCGRNRLEVESTIALSDAFIKLGTLEEIRLPQNGIRDDGIIALAEAFRMNKKLRIIDINDNFCCPEGAIQISEVLSDLQFIEVLDLGDCVCDDPGVLAIIAELDKINRDCLKKVVLSGNNITSDVIDEIGACFNSPKMCHVKVDISVNMFGKDFDSAKARHGKGNIDFGRRGDDELLSSDEEEEQGAEDASMEEDAFNTSRETVIDRSNLHEASADEMMNDLMNKGFGCMKIEDNQQNSNGNGMVSFLDKSLKLDTAESAEPVVKVIAAASSMKALELRGNTLGIAAGNVIAKALESHPELERCLWSDLFTGRLKNEIPPILEALGKAMMTAGCKIKELDLSDNAFGPIGADALKDLLESPSSFSLEVLKLNNNGLGIGGKQIAKSLTECLRKSIAVGGENRLRLKTFIAGRNRLENPGAHALAATFKALETVEWFDVRQNGIHEEGIRALVAALKHNRNLRYLWLEDNTVLPKGAKALAKTLESWPKLEVLNLSDCLIRDAGCNYIIDHLNPQHHRHLKNVYLCGNELTPPVAKLLIQKWSKFDGLTPKPVLHIHTNSFGDEFSDVAGMAPENVNVGDEDDDLGSLDGDQEEYNSKSSDSEDADLDDDDEDDDEEAEIQIIDNGESQLKLAMDRIDRLDIDFESRFQEDTARVILQLSAPLKSCKMSEPALQRAIEVAENIVRRVESVKRNPIPATTQLVNNIVAQCAGTGVKAETDWGYGADPQVISRLFSELVARGHFKLELALLQRFFPSQ
Turning to B2, in test [2], the binding result is recorded as “binds”.

B3: CGH-1 (protein, UniProt Q95YF3 1-430)
chain: MSGAEQQQIVPANNGDENWKAGLNLPAKDRRFKTADVTDTKGVEFEDFCLGRDLLMGIFEKGWEKPSPIQEASIGVALTGQDILARAKNGTGKTGAYCIPVIEKIQPALKAIQAMVIVPTRELALQTSQICVELSKHIQLKVMVTTGGTDLRDDIMRLNGTVHLVIATPGRILDLMEKGVAKMEHCKTLVLDEADKLLSQDFQGILDRLINFLPKERQVMLYSATFPNTVTSFMQKHMHKPYEINLMEELTLLGVTQYYAFVQEKQKVHCLNTLFRKLQINQSIIFCNSTQRVELLAKKITEIGYSCYYIHSKMAQNHRNRVFHDFRQGNCRNLVCSDLLTRGIDIQAVNVVINFDFPRNAETYLHRIGRSGRFGHLGVAINLITYEDRHTLRRIEQELRTRIEPIPKTVDPKLYVADQQLVDAADETTA
In the case of B3, the binding entry in test [2] was “binds”.

B4: PAB-1 (protein, UniProt Q9U302 1-646)
chain: MEMNVAAPAAAVAGAAAPQPGQNQTGSSYTMASLYVGDLHPDVNESILFEKFSAAGPVLSIRVCRDNATRLSLGYAYVNFQQPADAERAMDTMNFEALHGKPMRIMWSQRDPAMRRSGAGNIFIKNLDKVIDNKSIYDTFSLFGNILSCKVAIDEDGFSKGYGFVHFETEEAAQNAIQKVNGMLLAGKKVFVGKFQPRAQRNRELGETAKQFTNVYVKNFGDHYNKETLEKLFAKFGNITSCEVMTVEGKSKGFGFVAFANPEEAETAVQALHDSTIEGTDLKLHVCRAQKKSERHAELKKKHEQHKAERMQKYQGVNLYVKNLDETVDDDGLKKQFESYGNITSAKVMTDENGRSKGFGFVCFEKPEEATSAVTEMNSKMVCSKPLYVAIAQRKEDRRAQLASQYMQRLASMRMHGNVPGAAMYNPTQPGPGYYVANPMQQQRNFAGGQQMVRPGGRWGMQNQYPVQNQYMMAQGPGVYQNRMGRPQNQQGGPRGPPQQYNQVAQGGVRMQGPPRTQNPGVQQQNVPRPPQQQQQQRPAPTGPKAPPQPYQAYQQRPQGIVIGGQEPLTSAMLAAAAPQEQKQLLGERIYALIEKLYPGHKDAGKITGMMLEIDNSELIMMLQDSELFRSKVDEAASVLVSAQKQ
As for B4, the binding entry in test [2] is recorded as “binds”.

B5: CAR-1 (protein, UniProt Q9XW17 1-340)
chain: MSNQTPYIGSKISLISKLDIRYEGILYTVDTNDSTIALAKVRSFGTEKRPTANPVAARDDVYEYIIFKASDIKDLIVCDTPKMANIGGGLPYDPAIISVSSRSAPASDGAPAASAGSSRAGTPSRNSPLGQIIQNQRPGRGGYQQNFQANRGYNNYRGGFAGGYNNQRGHNNYGVPRVNHREKLKFESDFDFEKANEKFQEVLVDNLEKLNIEDKAEPEVEEKKDAAFYDKKTSFFDNISCESLEKAEGKTGRPDWKKERETNQETFGHNAVRSLNYRRGFGGRGRGGNRGYGGYNNGYQHQHQHRGGYNGGYRQNNGGYRRGGYAPRDNQGNTAAAAEQ
For B5, the binding result in test [2] is “binds”.

B6: EEF-1B.2 (protein, UniProt Q9U2H9 1-263)
chain: MSVEGLLSEVKHFNAHHLDAALGEQLFYGGKRVFSDVKPGTSSGGDHGCKGGKSELKGAIHNAKHAADKALNKEGGEDVSKLREEHSALAKKVDDLASLVAELQLQLSTLRQGQTSSVAAPAAAPAAAKEEAAGDDDFDLFGSEDEEEDEEKKKVVEERLAAYAAKKATKAGPIAKSSVILDVKPWDDETDLGEMEKLVRSIEMDGLVWGGAKLIPIGYGIKKLQIITVIEDLKVSVDDLIEKITGDFEDHVQSVDIVAFNKI
For B6, the binding entry in test [2] is “binds”.

B7: NXT-1 (protein, UniProt Q9U757 1-137)
chain: MSMKTTQEINKEDEELCNESKKFMDVYYDVMDRKREKIGFLYTQVSNAVWNGNPINGYDSICEFMKALPSTQHDIQSLDAQRLPEGVTGDMSGGMLLNVAGAVTVDGDSKRAFTQTLLLGVEDGKYKVKSDRFRYVD
Turning to B7, in test [2], the binding entry was “binds”.

B8: HSP-16.1 (protein, UniProt P34696 1-145)
chain: MSLYHYFRPAQRSVFGDLMRDMAQMERQFTPVCRGSPSESSEIVNNDQKFAINLNVSQFKPEDLKINLDGHTLSIQGEQELKTEHGYSKKSFSRVILLPEDVDVGAVASNLSEDGKLSIEAPKKEAIQGRSIPIQQAPVEQKTSE
For the molecule B8, the binding result in test [2] was “binds”.

For the origin of these results see PMC6762213.
